This assay has as its target T1, 3xFLAG-tagged chicken Thy28 (cThy28; Thymocyte nuclear protein 1), shRNA-resistant silent mutant (chicken) (UniProt Q90679).
T1 sequence: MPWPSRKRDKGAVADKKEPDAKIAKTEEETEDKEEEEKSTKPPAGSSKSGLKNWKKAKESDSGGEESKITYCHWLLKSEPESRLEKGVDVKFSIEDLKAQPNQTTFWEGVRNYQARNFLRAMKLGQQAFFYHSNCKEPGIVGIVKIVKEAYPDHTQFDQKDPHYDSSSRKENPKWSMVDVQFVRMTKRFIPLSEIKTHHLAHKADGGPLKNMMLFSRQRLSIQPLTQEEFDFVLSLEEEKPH
The experiment in a line: affinity purification with mass spectrometry; nuclear extracts pre-cleared with normal mouse IgG on Dynabeads-Protein G, then anti-FLAG M2 Ab on Dynabeads-Protein G at 4°C for 2 h; washed with 20 mM Tris pH 8.0, 150 mM NaCl, 25% glycerol, 1.5 mM MgCl2, 0.2 mM EDTA, 0.1% IGEPAL-CA630; eluted with 3xFLAG peptide; SDS-PAGE, silver staining, bands excised for LC-MS/MS.

Sequences of proteins named here, by UniProt entry; tags and fusion partners are left off.
UniProt P14105: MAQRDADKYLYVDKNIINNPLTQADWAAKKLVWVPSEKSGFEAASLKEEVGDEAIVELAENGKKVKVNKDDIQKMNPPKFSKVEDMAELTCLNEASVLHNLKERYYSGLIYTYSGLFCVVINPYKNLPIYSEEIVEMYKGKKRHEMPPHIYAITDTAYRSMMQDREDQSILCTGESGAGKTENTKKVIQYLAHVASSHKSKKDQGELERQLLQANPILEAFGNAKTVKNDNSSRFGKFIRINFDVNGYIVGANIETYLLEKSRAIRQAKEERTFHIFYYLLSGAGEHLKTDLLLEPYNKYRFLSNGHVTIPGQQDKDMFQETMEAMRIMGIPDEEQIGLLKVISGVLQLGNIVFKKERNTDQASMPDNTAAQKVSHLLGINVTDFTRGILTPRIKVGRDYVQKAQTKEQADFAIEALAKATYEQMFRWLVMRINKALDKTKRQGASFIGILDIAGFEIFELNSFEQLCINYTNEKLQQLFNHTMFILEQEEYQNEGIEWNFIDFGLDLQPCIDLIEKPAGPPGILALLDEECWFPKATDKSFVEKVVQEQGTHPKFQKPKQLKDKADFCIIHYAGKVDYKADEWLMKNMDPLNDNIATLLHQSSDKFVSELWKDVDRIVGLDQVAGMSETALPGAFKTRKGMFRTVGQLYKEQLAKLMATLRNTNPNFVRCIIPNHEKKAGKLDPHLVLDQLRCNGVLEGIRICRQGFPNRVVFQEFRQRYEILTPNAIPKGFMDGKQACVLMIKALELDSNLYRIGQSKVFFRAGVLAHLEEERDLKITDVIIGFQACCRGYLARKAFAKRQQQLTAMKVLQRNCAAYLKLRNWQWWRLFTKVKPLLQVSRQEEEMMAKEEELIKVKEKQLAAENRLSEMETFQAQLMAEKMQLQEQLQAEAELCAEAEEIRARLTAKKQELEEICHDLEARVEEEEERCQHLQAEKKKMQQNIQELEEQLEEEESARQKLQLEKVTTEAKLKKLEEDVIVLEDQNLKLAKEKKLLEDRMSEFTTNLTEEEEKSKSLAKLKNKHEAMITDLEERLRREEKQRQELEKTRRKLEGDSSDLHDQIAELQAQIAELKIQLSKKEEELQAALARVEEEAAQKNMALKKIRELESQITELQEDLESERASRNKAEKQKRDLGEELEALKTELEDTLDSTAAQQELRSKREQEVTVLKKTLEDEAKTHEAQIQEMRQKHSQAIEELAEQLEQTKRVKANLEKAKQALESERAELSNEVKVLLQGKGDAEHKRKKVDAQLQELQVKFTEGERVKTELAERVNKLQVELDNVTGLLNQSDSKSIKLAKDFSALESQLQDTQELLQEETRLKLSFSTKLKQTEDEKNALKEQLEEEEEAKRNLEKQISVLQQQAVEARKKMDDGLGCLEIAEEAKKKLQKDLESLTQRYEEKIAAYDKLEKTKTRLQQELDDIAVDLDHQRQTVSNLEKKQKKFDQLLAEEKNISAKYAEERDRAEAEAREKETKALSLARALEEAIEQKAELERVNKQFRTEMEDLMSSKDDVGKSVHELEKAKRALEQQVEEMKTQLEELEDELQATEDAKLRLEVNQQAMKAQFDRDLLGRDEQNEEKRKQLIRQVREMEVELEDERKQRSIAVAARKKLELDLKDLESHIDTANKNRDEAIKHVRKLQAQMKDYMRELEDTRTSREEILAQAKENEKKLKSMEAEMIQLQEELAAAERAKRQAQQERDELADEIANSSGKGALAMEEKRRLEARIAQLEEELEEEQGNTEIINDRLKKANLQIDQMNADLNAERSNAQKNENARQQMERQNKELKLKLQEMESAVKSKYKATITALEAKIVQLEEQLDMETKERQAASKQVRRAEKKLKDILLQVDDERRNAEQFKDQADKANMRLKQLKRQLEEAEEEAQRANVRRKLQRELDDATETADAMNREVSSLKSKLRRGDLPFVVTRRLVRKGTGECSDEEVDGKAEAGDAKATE

In paper PMC4301804 one finds binding data, which are given here for one substance.

These are yes or no findings as the source states them, for the method shown. In cells and extracts the contact can be indirect. A yes stands for co-enrichment or nearness to the bait. Other partners may have been found. Tags and fused reporters may be left off the sequences shown.

Regarding “myosin-9 (MYH9) (from UniProt P14105 1-1959)”, the binding result is “binds”.
